From paper PMC10696399

Columns and labels:
[1] = molecular target: T1, FLAG-tagged SopD2 (S. Typhimurium strain SL1344) (UniProt Q8ZQC8); assay: co-IP; 293T cells transfected with FLAG-tagged SpvB, truncation mutants or SopD2; anti-FLAG immunoprecipitates probed with antibodies against endogenous CHC and AP-1γ
T1 sequence: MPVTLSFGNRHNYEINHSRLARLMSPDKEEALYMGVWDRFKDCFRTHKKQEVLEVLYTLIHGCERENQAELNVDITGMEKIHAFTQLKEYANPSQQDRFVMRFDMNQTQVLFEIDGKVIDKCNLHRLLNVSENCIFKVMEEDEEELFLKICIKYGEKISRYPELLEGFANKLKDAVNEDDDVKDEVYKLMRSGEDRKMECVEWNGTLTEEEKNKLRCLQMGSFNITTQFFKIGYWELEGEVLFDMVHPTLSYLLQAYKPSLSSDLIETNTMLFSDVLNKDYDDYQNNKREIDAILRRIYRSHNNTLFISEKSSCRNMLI

[2] = molecular target: T2, HA-SpvB (S. Typhimurium strain SL1344) (UniProt P21454); assay: co-IP; FLAG-tagged AP-1 subunits or CHC cotransfected with or without HA-SpvB in 293T cells; lysates precipitated with beads coated with HA antibody; immunoblot
T2 sequence: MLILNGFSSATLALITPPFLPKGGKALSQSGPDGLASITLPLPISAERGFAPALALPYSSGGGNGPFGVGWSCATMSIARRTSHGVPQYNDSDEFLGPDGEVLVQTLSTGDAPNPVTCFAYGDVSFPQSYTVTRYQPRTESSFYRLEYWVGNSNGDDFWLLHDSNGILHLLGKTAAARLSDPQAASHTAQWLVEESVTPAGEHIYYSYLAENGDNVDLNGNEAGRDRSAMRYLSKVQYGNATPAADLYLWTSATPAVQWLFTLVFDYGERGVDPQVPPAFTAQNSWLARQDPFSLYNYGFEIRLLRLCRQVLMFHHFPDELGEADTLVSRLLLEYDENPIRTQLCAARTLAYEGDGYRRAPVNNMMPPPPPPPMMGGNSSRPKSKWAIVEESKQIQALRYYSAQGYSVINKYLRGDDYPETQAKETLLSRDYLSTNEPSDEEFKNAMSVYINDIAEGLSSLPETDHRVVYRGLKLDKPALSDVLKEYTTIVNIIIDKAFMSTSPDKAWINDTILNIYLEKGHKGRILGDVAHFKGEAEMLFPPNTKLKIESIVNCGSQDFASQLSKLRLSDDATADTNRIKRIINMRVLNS

[3] = molecular target: FLAG-tagged AP-1μ (human); assay: co-IP; GFP-SpvB or GFP-tagged truncation mutants cotransfected with FLAG-tagged AP-1 subunits or CHC in 293T cells; lysates precipitated with beads coated with FLAG antibody; immunoblot
[4] = molecular target: FLAG-tagged AP-1σ (human); assay: as above
[5] = molecular target: FLAG-tagged AP-1β (human); assay: as above
[6] = molecular target: FLAG-tagged AP-1γ (human); assay: as above

AP-1γ (endogenous) (human (endogenous in HEK293T))
binding [1]: no binding

FLAG-tagged AP-1β (human)
binding [2]: binds

FLAG-tagged AP-1γ (human)
binding [2]: binds

FLAG-tagged AP-1μ (human)
binding [2]: binds

FLAG-tagged AP-1σ (human)
binding [2]: binds

B1: GFP-SpvB (protein, UniProt P21454 1-591)
chain: T2 sequence
binding [3]: binds
binding [4]: binds
binding [5]: binds
binding [6]: binds

Results are given in words; binding and its absence hold for the method and conditions named. In cells and extracts the contact can be indirect. For part of these data: Binding can be weak; no strength is given. Sequences can lack the tags named with a protein.
